# According to US20020197224A1, “Method of colouring hair” (Unilever Home & Personal Care USA, Division of Conopco, Inc., priority 2001, published 2002):
# Assay: Dyeing of hair switches with TGase substrate, permanent colour change by chromameter
# Set-up: species or system human
# Settings: blonde hair, four applications, after boiling water wash
substance,measurement,setting,value
Texas Red-Cadaverine [TRC],Total colour change (ΔE),"pre-treatment none, 10 mM DTT",29.6
same,Total colour change (ΔE),"pre-treatment none, no DTT",22.6
same,Total colour change (ΔE),"pre-treatment persulphate, 10 mM DTT",26.7
same,Total colour change (ΔE),"pre-treatment persulphate, no DTT",29.0
